For 16 compounds, cell number change and AC50 results are on record in PubChem BioAssay AID2685 (National Center for Advancing Translational Sciences (NCATS), 2010).

The assay in a line: qHTS Assay for Lipid Storage Modulators in Drosophila S3 Cells.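 As to cell number change: cells counted by Cell Tracker Red CMTPX staining in the red channel.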 The note with it: BODIPY lipid droplet fluorescence, 18-24 h; for cell number change: measured here: cell count max response, cells fed with added oleic acid. In outline:
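Drosophila S3 cells loaded with oleic acid (400 uM, as added) and compounds at several concentrations; lipid droplets imaged by 488-nm laser-scanning cytometry, 500–530 nm intensity and object ratio to cell channel. Percent activity normalized to 20 uM Triacsin C.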
On the technique in general: qHTS replaces the single test concentration by a dilution series.

Where [1] appears, read: measured here: cell number channel AC50, cells fed with added oleic acid.
[2] abbreviates: measured here: lipid fluorescence (Fed channel) AC50, cells fed with added oleic acid.

Some of the results follow. Shown are side measurements of this screen, not its main read-out; they come without a call. The list favours compounds with an active or inconclusive main result. The note in brackets gives the kind of curve behind each potency; many fits are weak.

A word on the AC50: it is the concentration giving half of the maximal activity seen. The low end stands for greater potency, the high end for weaker potency. Consider `C=CCN(CC=C)C(=O)CN1C(=O)NC(Cc2c[nH]c3ccccc23)C1=O` (centres undefined), for which the cell number change came to 112%. Under setting [1], the AC50 is 29.1 µM [rising, single point]. For the same compound, the concentration at half-maximal activity (AC50) under setting [2] is 9.2 µM [rising, partial curve].
Regarding `O=C(COC(=O)Cc1ccccc1F)Nc1ccccc1[N+](=O)[O-]`, the cell number change was 6.63%. Further, the AC50 under setting [1] is 2.31 µM [falling, partial curve]. In addition, the AC50 under setting [2] is 2.91 µM [falling, partial curve].
As to `Cc1nnc(SCC(=O)NC(C)(C)C)n1C1CCCCC1`, the cell number change turned out to be 8.31%. In addition, the AC50 under setting [2] was 0.092 µM [falling, full curve].
`O=C(NC1CCN(Cc2ccccc2)CC1)c1ccc(N2CC3CC(C2)c2cccc(=O)n2C3)c([N+](=O)[O-])c1` (centres undefined): the cell number change came to 4.93%.
As to `Cc1ncccc1C(=O)N1CCCC(C(=O)c2ccc3c4c(cccc24)CC3)C1` (centres undefined), the cell number change is -45.7%. Besides, the AC50 under setting [1] was 20.6 µM [falling, single point]. Besides, under setting [2], the half-maximal activity concentration (AC50) was 16.4 µM [falling, partial curve].
On to `CCc1cccc(NC(=O)C2CCCN(S(=O)(=O)c3c(C)[nH]c(=O)[nH]c3=O)C2)c1` (centres undefined), for which the cell number change came to 1.47%. Besides, under setting [2], the AC50 was 0.146 µM [falling, partial curve, poor fit].
Consider `CCc1ccccc1NC(=S)N(Cc1cccc(C)c1)c1cccnc1`, for which the half-maximal activity concentration (AC50) under setting [1] was 2.91 µM [rising, single point].
Regarding `CC(O)Cc1nsc(NC(=O)c2ccc(Br)o2)n1` (centres undefined), the cell number change was -40.5%. The AC50 under setting [2] is 16.4 µM [falling, single point].
In the case of `Cc1ccc(SC2=C(C(=O)O)CCCC2)cc1`, the cell number change was 8.06%.
Take `Cc1ccc(Cn2ccc(NC(=O)c3cc(C4CC4)on3)n2)cc1`: the cell number change is -4.13%. Under setting [2], the half-maximal activity concentration (AC50) was 8.2 µM [rising, partial curve, poor fit].
As to `O=C(COC(=O)c1cc2ccccc2oc1=O)c1cccc([N+](=O)[O-])c1`, the cell number change is 3.25%. Further, the AC50 under setting [2] is 0.82 µM [falling, partial curve].
For `CC(=O)/C(=N\Nc1ccccc1)Sc1cccc2cccnc12`, the cell number change was 13.8%. For the same compound, the concentration at half-maximal activity (AC50) under setting [2] is 1.3 µM [rising, full curve, poor fit].
For `Cc1ccc(C)n1-c1nnc(N2CCC(C(=O)NCCCN3CC(C)CC(C)C3)CC2)s1` (centres undefined), under setting [2], the concentration at half-maximal activity (AC50) was 6.51 µM [falling, single point].
With `O=C(Cc1ccccc1)NNC(=O)c1cnccn1`, the cell number change was -24.1%. In addition, the AC50 under setting [1] is 1.3 µM [falling, full curve, poor fit]. The AC50 under setting [2] was 1.46 µM [falling, full curve, poor fit].
For `CN(C)/C=N/NC(=O)c1ccc(Cl)cc1`, the cell number change was -38.3%. For the same compound, under setting [1], the AC50 was 29.1 µM [falling, single point]. The concentration at half-maximal activity (AC50) under setting [2] is 29.1 µM [falling, single point].
With `COc1ccc(N=C2SC(CC(=O)Nc3ccccc3OC)C(=O)N2Cc2ccco2)cc1` (centres undefined), the cell number change amounted to 167%. Further, under setting [1], the AC50 was 13 µM [rising, partial curve]. Moreover, the AC50 under setting [2] was 0.164 µM [rising, full curve, poor fit].
